Assay results: PubChem BioAssay (EPA / NIEHS)
“And” between values parts separate entries of the source, which are not always exact repeats. Equal values may be shown once. The shares of active, inactive and inconclusive entries below differ from those in the screen. Where the call is inconclusive, the potency comes from a doubtful curve fit. A structure can be active in one record and inactive in another. The source made the active and inactive calls. The calls were made as follows: active = hit-call score of the fitted dose curve at least 0.9, where 1 is the maximum; inconclusive = response in the unintended direction; inactive = score below 0.9.

By UniProt entry, the sequences of proteins in these tests, tags left out.
UniProt P04637, whole entry, looked up: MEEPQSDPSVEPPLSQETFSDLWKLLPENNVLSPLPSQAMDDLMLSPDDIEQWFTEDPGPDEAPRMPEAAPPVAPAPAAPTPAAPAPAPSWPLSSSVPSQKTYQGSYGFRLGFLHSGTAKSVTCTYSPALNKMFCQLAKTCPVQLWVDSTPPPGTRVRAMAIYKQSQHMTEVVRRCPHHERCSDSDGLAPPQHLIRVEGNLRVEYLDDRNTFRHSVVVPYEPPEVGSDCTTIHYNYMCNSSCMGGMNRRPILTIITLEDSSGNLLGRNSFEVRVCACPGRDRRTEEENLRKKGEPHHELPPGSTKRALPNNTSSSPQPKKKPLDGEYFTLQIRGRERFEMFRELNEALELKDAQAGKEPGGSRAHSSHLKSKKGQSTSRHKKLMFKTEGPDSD

Test system: not listed separately
Assay: TOX21_p53_BLA_p4_viability: Viability Assessment in the Tox21 HCT-116 p53 Agonism Beta-lactamase Assay, Phase 4 (AID 2283597);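 also: hits lower the luminescence signal meaning cytotoxicity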
Procedure, shortened: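 In this multiplexed secondary endpoint, HCT116 cells (4000 per well, compound at 5 h, 16 h treatment) received CellTiter-Glo after the beta-lactamase read. Luminescence after 30 min RT reflects ATP, and falling signal marks cytotoxicity.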

Q: Which AC50 does the source give for `CCOC(=O)O[C@]1(C(=O)COC(=O)CC)CC[C@H]2[C@@H]3CCC4=CC(=O)C=C[C@]4(C)[C@H]3[C@@H](O)C[C@@]21C` here?
A: Its AC50 is inconclusive: 10.3 µM.

Q: With `CCCC(C)C` as the compound, how does the AC50 read?
A: The AC50 was inconclusive: 21.6 µM.

Q: Which AC50 does the source give for `FC(F)(F)c1ccccc1` here?
A: Its AC50 is inconclusive: 45.1 µM.

Q: Which AC50 does the source give for `CC(=O)OC(C)OC(C)=O` here?
A: Its AC50 is inconclusive: 47.3 µM.

Q: Which AC50 does the source give for `CC(=O)Nc1ccc(OC(C)=O)cc1` here?
A: Its AC50 is inconclusive: 23 µM.

Q: Which AC50 does the source give for `CN1CCCCC1CCN1c2ccccc2Sc2ccc(S(C)=O)cc21` (stereo not given) here?
A: Its AC50 is inconclusive: 23 µM and inconclusive: 29 nM.

Q: What does the source list for `O=S(=O)(O)CCS`?
A: outcome: inactive; AC50: inconclusive: 23 µM

Q: For `O=C(O)c1cc(=O)c2ccccc2o1`, which AC50 is on record?
A: The AC50 was inconclusive: 4.57 µM.

Q: Which results are given for `O=S(O)CO`?
A: outcome: inactive; AC50: inconclusive: 23 µM

Q: With `C=C(C)CC(C)(C)C` as the compound, how does the AC50 read?
A: The AC50 was inconclusive: 0.698 µM.

Q: And the outcome?
A: Its outcome is “inactive”.

Q: With `CC(=C(CCOC(=O)C(C)C)SSC(CCOC(=O)C(C)C)=C(C)N(C=O)Cc1cnc(C)nc1N)N(C=O)Cc1cnc(C)nc1N` as the compound, how does the outcome read?
A: The outcome was “inactive”.

Q: For `COc1ccc2cc([C@H](C)CO)ccc2c1`, which AC50 is on record?
A: Its AC50 is inconclusive: 23 µM.

Q: For `CCOC(=O)C1=C(C)NC(C)=C(C(=O)OCC)C1c1ccccc1/C=C/C(=O)OC(C)(C)C`, which AC50 is on record?
A: The AC50 was inconclusive: 0.0306 µM.

Q: For `CNC(=O)CN(CCN(CCN(CC(=O)[O-])CC(=O)NC)CC(=O)[O-])CC(=O)[O-].O.[Gd+3]`, which outcome is on record?
A: Its outcome is “inactive”.

Q: And the AC50?
A: The AC50 was inconclusive: 23 µM.

Q: With `CC1=C(/C=C/C(C)=C/C=C/C(C)=C/C=C/C=C(C)/C=C/C=C(C)/C=C/C2=C(C)C(=O)CCC2(C)C)C(C)(C)CCC1=O` as the compound, how does the AC50 read?
A: The AC50 was inconclusive: 39.7 µM.

Q: Which AC50 does the source give for `C[C@H](O)C(=O)Nc1c(I)c(C(=O)NC(CO)CO)c(I)c(C(=O)NC(CO)CO)c1I` here?
A: Its AC50 is inconclusive: 10.3 µM.

Q: For `CC1(C)S[C@@H]2[C@H](NC(=O)[C@@H](NC(=O)N3CCNC3=O)c3ccccc3)C(=O)N2[C@H]1C(=O)O`, which AC50 is on record?
A: Its AC50 is inconclusive: 10.3 µM.

Q: For `CC(C)CNCC(C)C`, which AC50 is on record?
A: The AC50 was inconclusive: 45.7 µM.

Q: For `CCC(=O)OCC(=O)[C@@]1(OC(=O)CC)[C@@H](C)C[C@H]2[C@@H]3CCC4=CC(=O)C=C[C@]4(C)[C@@]3(F)[C@@H](O)C[C@@]21C`, which outcome is on record?
A: Its outcome is “inactive”.

Q: Which outcome does the source give for `O=c1[nH]cnc2ccccc12` here?
A: The outcome was “inactive”.

Q: With `CCCCOCCOC(=O)CCCCCCCCC(=O)OCCOCCCC` as the compound, how does the AC50 read?
A: Its AC50 is inconclusive: 46.1 µM.

Q: Which outcome does the source give for `CCCCOc1ccc(OCCCN2CCOCC2)cc1` here?
A: The outcome was “inactive”.

Q: With `C=CCSSSCC=C` as the compound, how does the AC50 read?
A: Its AC50 is inconclusive: 23 µM.

Q: For `C=C(C)c1ccccc1`, which AC50 is on record?
A: Its AC50 is inconclusive: 46.1 µM.

Q: With `CC(C)(CCl)c1ccccc1` as the compound, how does the outcome read?
A: Its outcome is “inactive”.

Q: For `ONc1ccccc1`, which AC50 is on record?
A: Its AC50 is inconclusive: 50.3 µM.

Q: Which results are given for `CC1(C)OC(=O)NC1=O`?
A: AC50: inconclusive: 0.943 µM; outcome: inactive

Q: Which AC50 does the source give for `CCOC(=O)C1=C[C@]2(CC)CCCN3CCc4c(n1c1ccccc41)[C@@H]32` here?
A: The AC50 was inconclusive: 486 nM and inconclusive: 393 nM.

Q: With `O=[N+]([O-])c1cc(C2CCCCC2)c(O)c([N+](=O)[O-])c1` as the compound, how does the AC50 read?
A: Its AC50 is inconclusive: 0.00023 µM.

Q: Which AC50 does the source give for `Nc1ccccc1S(=O)(=O)O` here?
A: The AC50 was inconclusive: 45.2 µM.

Q: Which AC50 does the source give for `CCN1CCCC1CNC(=O)c1cc(S(=O)(=O)CC)c(N)cc1OC` (stereo not given) here?
A: Its AC50 is inconclusive: 0.00089 µM.

Q: What does the source list for `CC/C=C(\C(=O)N[C@@H]1C(=O)N2C(C(=O)OCOC(=O)C(C)(C)C)=C(COC(N)=O)CS[C@H]12)c1csc(N)n1`?
A: AC50: inconclusive: 0.0947 µM; outcome: inactive

Q: With `C=CC(=O)[O-].C=CC(=O)[O-].[Zn+2]` as the compound, how does the AC50 read?
A: Its AC50 is inconclusive: 45.2 µM.

Q: With `C[C@H](CCC(=O)O)[C@H]1CC[C@H]2[C@@H]3[C@H](O)C[C@@H]4C[C@H](O)CC[C@]4(C)[C@H]3CC[C@]12C` as the compound, how does the AC50 read?
A: The AC50 was active: 87.1 µM.

Q: Which AC50 does the source give for `CC(=O)O[C@H]1C[C@@H]2CC[C@@H]3[C@H](CC[C@@]4(C)[C@H]3C[C@H](N3CC[N+](C)(C)CC3)[C@@H]4OC(C)=O)[C@@]2(C)C[C@@H]1N1CC[N+](C)(C)CC1` here?
A: The AC50 was inconclusive: 0.0755 µM.

Q: Which AC50 does the source give for `Cc1cc(N)no1` here?
A: Its AC50 is inconclusive: 1.43 µM.

Q: With `OC[C@H]1O[C@@H](O[C@@H]2[C@@H](CO)O[C@](O)(CO)[C@H]2O)[C@H](O)[C@@H](O)[C@H]1O` as the compound, how does the AC50 read?
A: Its AC50 is inconclusive: 11.8 µM.

Q: With `CC(C)NCC(O)COc1ccc(CCOCC2CC2)cc1` (stereo not given) as the compound, how does the AC50 read?
A: Its AC50 is inconclusive: 23 µM.

Q: With `CCN(CC)c1cccc(O)c1` as the compound, how does the AC50 read?
A: Its AC50 is inconclusive: 84.1 µM.

Q: Which outcome does the source give for `Nc1c(N=Nc2ccc(-c3ccc(N=Nc4cc(S(=O)(=O)O)c5ccccc5c4N)cc3)cc2)cc(S(=O)(=O)O)c2ccccc12` here?
A: The outcome was “inactive”.

Q: What about the AC50 of the same compound?
A: Its AC50 is inconclusive: 0.194 µM.

Molecular target: Cellular tumor antigen p53 (Homo sapiens) (UniProt P04637)
Assay: TOX21_p53_BLA_p5_ratio: Tox21 HCT-116 p53 Agonism Beta-lactamase Assay, Ratio, Phase 5 (AID 2283599)
Procedure, shortened: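 HCT-116 p53-bla cells (4000/well) plated 5 h, dosed with compound (217-fold DMSO dilution) for 16 h at 37 C; CCF4-AM substrate 2 h at room temperature. Activity is the 460/530 nm emission ratio (405 nm excitation), fitted in gain-of-signal direction versus DMSO.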

Q: With `CCCC(C)C` as the compound, how does the outcome read?
A: Its outcome is “inactive”.

Q: With `FC(F)(F)c1ccccc1` as the compound, how does the outcome read?
A: Its outcome is “inactive”.

Q: For `CC(=O)OC(C)OC(C)=O`, which AC50 is on record?
A: Its AC50 is inconclusive: 47.3 µM.

Q: With `CN1CCCCC1CCN1c2ccccc2Sc2ccc(S(C)=O)cc21` (stereo not given) as the compound, how does the outcome read?
A: Its outcome is “inactive”.

Q: And the AC50?
A: The AC50 was inconclusive: 35.2 µM.

Q: With `O=S(=O)(O)CCS` as the compound, how does the AC50 read?
A: The AC50 was inconclusive: 23 µM.

Q: Which AC50 does the source give for `O=C(O)c1cc(=O)c2ccccc2o1` here?
A: Its AC50 is inconclusive: 23 µM.

Q: For `C=C(C)CC(C)(C)C`, which AC50 is on record?
A: The AC50 was inconclusive: 80.7 µM.

Q: With `COc1ccc2cc([C@H](C)CO)ccc2c1` as the compound, how does the outcome read?
A: The outcome was “inactive”.

Q: For `CCOC(=O)C1=C(C)NC(C)=C(C(=O)OCC)C1c1ccccc1/C=C/C(=O)OC(C)(C)C`, which AC50 is on record?
A: The AC50 was active: 26.5 µM.

Q: Which AC50 does the source give for `CNC(=O)CN(CCN(CCN(CC(=O)[O-])CC(=O)NC)CC(=O)[O-])CC(=O)[O-].O.[Gd+3]` here?
A: The AC50 was inconclusive: 23 µM.

Q: For `C[C@H](O)C(=O)Nc1c(I)c(C(=O)NC(CO)CO)c(I)c(C(=O)NC(CO)CO)c1I`, which outcome is on record?
A: Its outcome is “inactive”.

Q: For `CC(C)CNCC(C)C`, which outcome is on record?
A: The outcome was “inactive”.

Q: Which AC50 does the source give for `CCCCOCCOC(=O)CCCCCCCCC(=O)OCCOCCCC` here?
A: Its AC50 is inconclusive: 46.1 µM.

Q: With `CCCCOc1ccc(OCCCN2CCOCC2)cc1` as the compound, how does the AC50 read?
A: The AC50 was inconclusive: 19.4 µM.

Q: With `ONc1ccccc1` as the compound, how does the AC50 read?
A: Its AC50 is inconclusive: 50.3 µM.

Q: Which results are given for `CC1(C)OC(=O)NC1=O`?
A: outcome: inactive; AC50: inconclusive: 46.2 µM

Q: For `CCOC(=O)C1=C[C@]2(CC)CCCN3CCc4c(n1c1ccccc41)[C@@H]32`, which outcome is on record?
A: Its outcome is “inactive”.

Q: For `O=[N+]([O-])c1cc(C2CCCCC2)c(O)c([N+](=O)[O-])c1`, which outcome is on record?
A: The outcome was “inactive”.

Q: Which outcome does the source give for `Nc1ccccc1S(=O)(=O)O` here?
A: The outcome was “inactive”.

Q: For `CCN1CCCC1CNC(=O)c1cc(S(=O)(=O)CC)c(N)cc1OC` (stereo not given), which AC50 is on record?
A: The AC50 was inconclusive: 23 µM.

Q: For `CC/C=C(\C(=O)N[C@@H]1C(=O)N2C(C(=O)OCOC(=O)C(C)(C)C)=C(COC(N)=O)CS[C@H]12)c1csc(N)n1`, which AC50 is on record?
A: The AC50 was inconclusive: 39.6 µM and inconclusive: 23 µM.

Q: With `C[C@H](CCC(=O)O)[C@H]1CC[C@H]2[C@@H]3[C@H](O)C[C@@H]4C[C@H](O)CC[C@]4(C)[C@H]3CC[C@]12C` as the compound, how does the AC50 read?
A: Its AC50 is inconclusive: 10.3 µM.

Q: And the outcome?
A: The outcome was “inactive”.

Q: For `Cc1cc(N)no1`, which AC50 is on record?
A: The AC50 was inconclusive: 47.5 µM.

Q: With `CC(C)NCC(O)COc1ccc(CCOCC2CC2)cc1` (stereo not given) as the compound, how does the AC50 read?
A: The AC50 was inconclusive: 23 µM.

Q: Which AC50 does the source give for `Nc1c(N=Nc2ccc(-c3ccc(N=Nc4cc(S(=O)(=O)O)c5ccccc5c4N)cc3)cc2)cc(S(=O)(=O)O)c2ccccc12` here?
A: The AC50 was inconclusive: 23 µM.
